# This is one part of the list.
# B1: CD4 (Rattus norvegicus), P05540 (protein)
# chain: MCRGFSFRHLLPLLLLQLSKLLVVTQGSTSITAYKSEGESAEFSFPLNLGEESLQGELRWKAEKAPSSQSWITFSLKNQKVSVQKSTSNPKFQLSETLPLTLQIPQVSLQFAGSGNLTLTLDRGILYQEVNLVVMKVTQPDSNTLTCEVMGPTSPKMRLILKQENQEARVSRQEKVIQVQAPEAGVWQCLLSEGEEVKMDSKIQVLSKGLNSGGGSGGGTGGGDLAPQMLRELQETNAALQDVRELLRQQVKEITFLKNTVMECDACGLDRNLPPLAPLGPHPETLVKVKDAEDQLGARVGYIELDLNSGKILESFRPEERFPMMSTFKVLLCGAVLSRIDAGQEQLGRRIHYSQNDLVEYSPVTEKHLTDGMTVRELCSAAITMSDNTAANLLLTTIGGPKELTAFLHNMGDHVTRLDRWEPELNEAIPNDERDTTMPVAMATTLRKLLTGELLTLASRQQLIDWMEADKVAGPLLRSALPAGWFIADKSGAGERGSRGIIAALGPDGKPSRIVVIYTTGSQATMDERNRQIAEIGASLIKHW
# How the values were obtained:
# Experiment in all cases: glycan array binding signal (z-score within array); higher = stronger binding
# Settings in all cases: glycan notation: IUPAC condensed, linker removed
# [1] = biological target: Gal(a1-3)Gal(b1-4)GlcNAc(b1-2)Man
# Method in brief: (§1)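 Negative Z-scores can be read as non-binding. The Z-score is calculated within each array and then averaged across arrays of one protein sequence at different concentrations or buffers and across linkers. Arrays, 3228 in all, were curated from the Consortium for Functional Glycomics database and kept only where the protein sequence was available.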
# [2] = biological target: Gal(a1-3)Gal(b1-4)GlcNAc(b1-2)Man(a1-3)[Gal(a1-3)Gal(b1-4)GlcNAc(b1-2)Man(a1-6)]Man(b1-4)GlcNAc(b1-4)GlcNAc
# Method in brief: as §1
# [3] = biological target: Gal(a1-3)Gal(b1-4)GlcNAc(b1-3)GalNAc
# Method in brief: as §1
# [4] = biological target: Gal(a1-3)Gal(b1-4)GlcNAc(b1-6)GalNAc
# Method in brief: as §1
# [5] = biological target: Gal(a1-3)Gal(b1-4)[Fuc(a1-3)]GlcNAc
# Method in brief: as §1
# [6] = biological target: Gal(a1-3)Gal(b1-4)[Fuc(a1-3)]GlcNAc(b1-2)Man(a1-3)[Gal(a1-3)Gal(b1-4)[Fuc(a1-3)]GlcNAc(b1-2)Man(a1-6)]Man(b1-4)GlcNAc(b1-4)GlcNAc
# Method in brief: as §1
# Gal(a1-3)GalNAc = biological target: Gal(a1-3)GalNAc
# Method in brief: as §1
# [7] = biological target: Gal(a1-3)[Gal(a1-4)]Gal(b1-4)GlcNAc
# Method in brief: as §1
# [8] = biological target: Gal(a1-4)Gal(b1-3)GlcNAc(b1-2)Man(a1-3)[Gal(a1-4)Gal(b1-3)GlcNAc(b1-2)Man(a1-6)]Man(b1-4)GlcNAc(b1-4)GlcNAc
# Method in brief: as §1
# Gal(a1-4)Gal(b1-4)Glc = biological target: Gal(a1-4)Gal(b1-4)Glc
# Method in brief: as §1
# Gal(a1-4)Gal(b1-4)GlcNAc = biological target: Gal(a1-4)Gal(b1-4)GlcNAc
# Method in brief: as §1
# [9] = biological target: Gal(a1-4)Gal(b1-4)GlcNAc(b1-2)Man(a1-3)[Gal(a1-4)Gal(b1-4)GlcNAc(b1-2)Man(a1-6)]Man(b1-4)GlcNAc(b1-4)GlcNAc
# Method in brief: as §1
# [10] = biological target: Gal(a1-4)Gal(b1-4)GlcNAc(b1-3)Gal(b1-4)Glc
# Method in brief: as §1
# Gal(a1-4)GlcNAc = biological target: Gal(a1-4)GlcNAc
# Method in brief: as §1
# Gal(a1-6)Glc = biological target: Gal(a1-6)Glc
# Method in brief: as §1
# Gal(b1-2)Gal = biological target: Gal(b1-2)Gal
# Method in brief: as §1
# Gal(b1-3)Gal = biological target: Gal(b1-3)Gal
# Method in brief: as §1
# Gal(b1-3)Gal(b1-4)GlcNAc = biological target: Gal(b1-3)Gal(b1-4)GlcNAc
# Method in brief: as §1
# Gal(b1-3)GalNAc = biological target: Gal(b1-3)GalNAc
# Method in brief: as §1
# [11] = biological target: Gal(b1-3)GalNAc(a1-3)[Fuc(a1-2)]Gal(b1-4)Glc
# Method in brief: as §1
# [12] = biological target: Gal(b1-3)GalNAc(a1-3)[Fuc(a1-2)]Gal(b1-4)GlcNAc
# Method in brief: as §1
# Gal(b1-3)GalNAc(b1-3)Gal = biological target: Gal(b1-3)GalNAc(b1-3)Gal
# Method in brief: as §1
# [13] = biological target: Gal(b1-3)GalNAc(b1-3)Gal(a1-4)Gal(b1-4)Glc
# Method in brief: as §1
# [14] = biological target: Gal(b1-3)GalNAc(b1-4)Gal(b1-4)Glc
# Method in brief: as §1
# [15] = biological target: Gal(b1-3)GalNAc(b1-4)[Neu5Ac(a2-3)]Gal(b1-4)Glc
# Method in brief: as §1
# Gal(b1-3)GlcNAc = biological target: Gal(b1-3)GlcNAc
# Method in brief: as §1
# [16] = biological target: Gal(b1-3)GlcNAc(a1-3)Gal(b1-4)GlcNAc
# Method in brief: as §1
# [17] = biological target: Gal(b1-3)GlcNAc(a1-6)Gal(b1-4)GlcNAc
# Method in brief: as §1
# Gal(b1-3)GlcNAc(b1-2)Man = biological target: Gal(b1-3)GlcNAc(b1-2)Man
# Method in brief: as §1
# [18] = biological target: Gal(b1-3)GlcNAc(b1-2)Man(a1-3)[Gal(b1-3)GlcNAc(b1-2)Man(a1-6)]Man(b1-4)GlcNAc(b1-4)GlcNAc
# Method in brief: as §1
binder,measurement,setting,value
B1,glycan array binding signal (z-score),[1],0.938
same,glycan array binding signal (z-score),[2],0.652
same,glycan array binding signal (z-score),[3],-1.02
same,glycan array binding signal (z-score),[4],-1.75
same,glycan array binding signal (z-score),[5],-0.348
same,glycan array binding signal (z-score),[6],1.12
same,glycan array binding signal (z-score),Gal(a1-3)GalNAc,0.161
same,glycan array binding signal (z-score),[7],0.748
same,glycan array binding signal (z-score),[8],-0.131
same,glycan array binding signal (z-score),Gal(a1-4)Gal(b1-4)Glc,1.61
same,glycan array binding signal (z-score),Gal(a1-4)Gal(b1-4)GlcNAc,0.864
same,glycan array binding signal (z-score),[9],-0.117
same,glycan array binding signal (z-score),[10],3.31
same,glycan array binding signal (z-score),Gal(a1-4)GlcNAc,-2.17
same,glycan array binding signal (z-score),Gal(a1-6)Glc,-0.376
same,glycan array binding signal (z-score),Gal(b1-2)Gal,-0.658
same,glycan array binding signal (z-score),Gal(b1-3)Gal,0.504
same,glycan array binding signal (z-score),Gal(b1-3)Gal(b1-4)GlcNAc,-0.933
same,glycan array binding signal (z-score),Gal(b1-3)GalNAc,-0.572
same,glycan array binding signal (z-score),[11],-1.2
same,glycan array binding signal (z-score),[12],0.691
same,glycan array binding signal (z-score),Gal(b1-3)GalNAc(b1-3)Gal,-0.637
same,glycan array binding signal (z-score),[13],-0.509
same,glycan array binding signal (z-score),[14],-0.42
same,glycan array binding signal (z-score),[15],1.04
same,glycan array binding signal (z-score),Gal(b1-3)GlcNAc,-0.496
same,glycan array binding signal (z-score),[16],-0.73
same,glycan array binding signal (z-score),[17],-0.801
same,glycan array binding signal (z-score),Gal(b1-3)GlcNAc(b1-2)Man,-1.03
same,glycan array binding signal (z-score),[18],-0.655

# Some of the entries so far, tab-delimited:
binder	measurement	setting	value
B1	glycan array binding signal (z-score)	[1]	0.938
same	glycan array binding signal (z-score)	[3]	-1.02

# — the supplement of paper PMC8728848
